Results deposited as PubChem BioAssay AID652272 (Drosophila RNAi Screening Center, 2013).
Screen: 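Genome-wide knock-down search for components of Hedgehog signalling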 (primary screen). System: Drosophila clone 8 (Cl8) cells. Reagents: long dsRNA against Drosophila genes. Measured: 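Plate reader light from a firefly reporter under a ptc promoter fragment that responds to Hedgehog, with Renilla light as transfection reference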. Direction: firefly Hh reporter signal: higher = more ptc reporter light; Renilla reference signal: higher = more Renilla control light. Rule for the call: 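Hit when the z-score averaged over two replicates is under -2 or over +3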. Calls: active = hit: reporter lowered or raised; inactive = not a hit.
The deposit covers about 21,000 reagents; shown is a random part of those with a known target gene and a result. Over the whole deposit, 503 (2.4%) are marked active. 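Raw plate light values, not normalised; calls rest on replicate z-scores that were not deposited; hits include reporter decreases as well as increases.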 Unmarked entries are inactive. A plus sign joins genes that one reagent is predicted to hit. The record does not give: the amount of reagent, the time to read-out.

{"Gene": "CG7950 + Rpp14a", "amplicon": "DRSC16353", "firefly Hh reporter signal, replicate 1": 64060, "firefly Hh reporter signal, replicate 2": 43859, "Renilla reference signal, replicate 1": 1691, "Renilla reference signal, replicate 2": 1776}
{"Gene": "Polr3F (RNA polymerase III subunit F)", "amplicon": "DRSC15785", "firefly Hh reporter signal, replicate 1": 6.10e5, "firefly Hh reporter signal, replicate 2": 1.91e5, "Renilla reference signal, replicate 1": 31565, "Renilla reference signal, replicate 2": 4184}
{"Gene": "CG17625", "amplicon": "DRSC15249", "firefly Hh reporter signal, replicate 1": 5.11e5, "firefly Hh reporter signal, replicate 2": 1.19e5, "Renilla reference signal, replicate 1": 24389, "Renilla reference signal, replicate 2": 3542}
{"Gene": "Cyp4aa1 (Cytochrome P450 4aa1)", "amplicon": "DRSC07368", "firefly Hh reporter signal, replicate 1": 61718, "firefly Hh reporter signal, replicate 2": 47997, "Renilla reference signal, replicate 1": 1683, "Renilla reference signal, replicate 2": 3469}
{"Gene": "CG42537", "amplicon": "DRSC12519", "firefly Hh reporter signal, replicate 1": 62576, "firefly Hh reporter signal, replicate 2": 1.49e5, "Renilla reference signal, replicate 1": 2980, "Renilla reference signal, replicate 2": 4483}
{"Gene": "CheA75a (Chemosensory protein A 75a)", "amplicon": "DRSC10807", "firefly Hh reporter signal, replicate 1": 77536, "firefly Hh reporter signal, replicate 2": 39008, "Renilla reference signal, replicate 1": 3033, "Renilla reference signal, replicate 2": 1731}
{"Gene": "Indy-2 + CG33934", "amplicon": "DRSC15685", "firefly Hh reporter signal, replicate 1": 74073, "firefly Hh reporter signal, replicate 2": 78802, "Renilla reference signal, replicate 1": 3696, "Renilla reference signal, replicate 2": 3515}
{"Gene": "Indy-2 + CG33934", "amplicon": "DRSC15686", "firefly Hh reporter signal, replicate 1": 4.93e5, "firefly Hh reporter signal, replicate 2": 1.41e5, "Renilla reference signal, replicate 1": 27504, "Renilla reference signal, replicate 2": 4112}
{"Gene": "Lcp9 (Larval cuticle protein 9)", "amplicon": "DRSC04287", "firefly Hh reporter signal, replicate 1": 95433, "firefly Hh reporter signal, replicate 2": 55178, "Renilla reference signal, replicate 1": 2400, "Renilla reference signal, replicate 2": 4109}
{"Gene": "CG30467", "amplicon": "DRSC07097", "firefly Hh reporter signal, replicate 1": 92564, "firefly Hh reporter signal, replicate 2": 37268, "Renilla reference signal, replicate 1": 2364, "Renilla reference signal, replicate 2": 929}
{"Gene": "CG8745", "amplicon": "DRSC11033", "firefly Hh reporter signal, replicate 1": 83008, "firefly Hh reporter signal, replicate 2": 55240, "Renilla reference signal, replicate 1": 2928, "Renilla reference signal, replicate 2": 2101}
{"Gene": "CG8745", "amplicon": "DRSC11034", "firefly Hh reporter signal, replicate 1": 61459, "firefly Hh reporter signal, replicate 2": 76475, "firefly Hh reporter signal, replicate 3": 72432, "Renilla reference signal, replicate 1": 7930, "Renilla reference signal, replicate 2": 1384}
{"Gene": "CG8642", "amplicon": "DRSC07228", "firefly Hh reporter signal, replicate 1": 94341, "firefly Hh reporter signal, replicate 2": 47196, "Renilla reference signal, replicate 1": 2427, "Renilla reference signal, replicate 2": 4152}
{"Gene": "ChT (Choline transporter)", "amplicon": "DRSC16296", "firefly Hh reporter signal, replicate 1": 64869, "firefly Hh reporter signal, replicate 2": 43973, "Renilla reference signal, replicate 1": 1969, "Renilla reference signal, replicate 2": 2010}
{"Gene": "mRpL4 (mitochondrial ribosomal protein L4)", "amplicon": "DRSC03562", "firefly Hh reporter signal, replicate 1": 77949, "firefly Hh reporter signal, replicate 2": 43046, "Renilla reference signal, replicate 1": 3717, "Renilla reference signal, replicate 2": 1760}
{"Gene": "ppk6 (pickpocket 6)", "amplicon": "DRSC06062", "firefly Hh reporter signal, replicate 1": 68672, "firefly Hh reporter signal, replicate 2": 30410, "Renilla reference signal, replicate 1": 2096, "Renilla reference signal, replicate 2": 2672}
{"Gene": "tpr (tracheal-prostasin)", "amplicon": "DRSC04468", "firefly Hh reporter signal, replicate 1": 67307, "firefly Hh reporter signal, replicate 2": 55712, "Renilla reference signal, replicate 1": 2701, "Renilla reference signal, replicate 2": 2291}
{"Gene": "CG31769", "amplicon": "DRSC01361", "firefly Hh reporter signal, replicate 1": 1.43e5, "firefly Hh reporter signal, replicate 2": 2.19e5, "Renilla reference signal, replicate 1": 3753, "Renilla reference signal, replicate 2": 10227}
{"Gene": "CG4281", "amplicon": "DRSC18521", "firefly Hh reporter signal, replicate 1": 1.04e5, "firefly Hh reporter signal, replicate 2": 86246, "Renilla reference signal, replicate 1": 2331, "Renilla reference signal, replicate 2": 2688}
{"Gene": "Roc1b + Cdc5", "amplicon": "DRSC08687", "firefly Hh reporter signal, replicate 1": 1.10e5, "firefly Hh reporter signal, replicate 2": 58104, "Renilla reference signal, replicate 1": 2747, "Renilla reference signal, replicate 2": 3616}
{"Gene": "ATP7", "amplicon": "DRSC19819", "firefly Hh reporter signal, replicate 1": 68320, "firefly Hh reporter signal, replicate 2": 2.43e5, "Renilla reference signal, replicate 1": 2292, "Renilla reference signal, replicate 2": 8258}
